# According to PubChem BioAssay AID540276 (National Center for Advancing Translational Sciences (NCATS), 2011):
# Where “and” joins values, the source holds several entries; their conditions need not be identical. Identical values can stand only once. Among all 300,000 compounds or so, about 5,400 (1.8%) were called active. Inconclusive means that the source gave no clear call. Such entries were picked first, then a sample of the others. The call rests on the fitted dose curve; tested in HEK293 cells. Where the call is inconclusive, the potency comes from a doubtful curve fit.
# Assay: qHTS for inhibitors of binding or entry into cells for Marburg Virus
# Settings: Marburg virus pseudotyped entry inhibition, cell reporter; series mostly up to 37.8 µM
# Potency means the concentration at half of the fitted maximal effect.
row,SMILES,Potency
1,O=c1[nH]ncc(N2CCN(C(c3ccccc3)c3ccccc3)CC2)c1Cl,"inconclusive: 20 µM [inhibitor, single point]"
2,O=C1C(=Cc2ccco2)CCC1=Cc1ccco1,"inconclusive: 11.2 µM [inhibitor, partial curve, poor fit]"
3,CCCCCCCC1=Cc2ccc(F)cc2C(C(C(C)=O)C(=O)OC)N1C(=O)OC (stereo not drawn),"inconclusive: 0.0299 µM [activator, full curve, poor fit]"
4,Cc1cccc(-c2c3c(=O)n(C)c(=O)n(C)c3c3cnc4ccccc4n23)c1,inactive
5,O=C(c1ccccn1)N1CCCC(N2CCN(Cc3ccc4c(c3)OCO4)CC2)C1 (stereo not drawn),"inconclusive: 20 µM [activator, single point]"
6,O=C(Nc1c(Cl)cccc1Cl)c1cc(-c2cccc(O)c2)on1,"inconclusive: 4.47 µM [activator, partial curve, poor fit]"
7,Cc1cc2nc(-c3cccc(NC(=O)CSc4ccc(Cl)cc4)c3)oc2cc1C,"inconclusive: 1.41 µM [activator, full curve, poor fit]"
8,CCOC(=O)c1cnc2ccc(OC)cc2c1Nc1ccc2c(c1)OCCO2,"inconclusive: 25.1 µM [inhibitor, single point]"
9,N=C(N)SCc1nc2ccccc2c(=O)n1-c1ccccc1,"inactive and inconclusive: 3.98 µM [activator, full curve, poor fit]"
10,CCN1CCN(C(c2nnnn2Cc2ccc3c(c2)OCO3)C(C)C)CC1 (stereo not drawn),inactive
11,CC1(C)CC(=O)C(N=Nc2ccc(OC(F)F)cc2)=C(O)C1,"inconclusive: 31.6 µM [inhibitor, single point]"
12,CCOC(=O)c1cc(-c2ccc(C)cc2)n(CC(=O)NC2CCCCCC2)c1C,"inconclusive: 3.16 µM [inhibitor, full curve]"
13,CCCN(C(=O)c1cc2c(s1)-c1c(C)cccc1OC2)c1ccc(OCC)cc1,"inconclusive: 31.6 µM [activator, single point]"
14,CCS(=O)(=O)CCSP(=O)(OC)OC,"inconclusive: 31.6 µM [activator, single point]"
15,CCOc1ccccc1-n1c(O)c(C=Nc2ccc(N(CC)CC)cc2)c(=O)[nH]c1=O,inactive
16,Cc1ccc(C(=O)Nc2cccc(C(=O)O)c2)cc1S(=O)(=O)N1CCOCC1,"inconclusive: 9.2 µM [inhibitor, partial curve]"
17,CO/N=C/CC(=O)Nc1ccc(F)cc1F,inactive
18,COc1ccc(-n2cc(CNCCc3nc(C)cc(C)n3)c(-c3ccccc3Cl)n2)cc1,"inconclusive: 22.4 µM [inhibitor, single point]"
19,O=C(Nc1nc(=O)c2ccccc2s1)c1ccc(Cl)cc1,inactive
20,O=[N+]([O-])c1ccc(N2CCCC(C(F)(F)F)C2)c2ccncc12 (stereo not drawn),"inconclusive: 11.2 µM [inhibitor, partial curve, poor fit]"
21,COc1ccc(S(=O)(=O)N2CCCCCC2)cc1NC(=O)c1c2c(nc3ccccc13)CCN(Cc1ccccc1)C2,"inconclusive: 7.31 µM [inhibitor, partial curve, poor fit] and inconclusive: 7.94 µM [inhibitor, partial curve]"

row,SMILES,Potency
1,Cc1ccc2cc(C#N)c(NCCNC(=O)C3CC3)nc2c1C,"inconclusive: 29.1 µM [inhibitor, single point]"
2,OC(c1ccc(Cl)cc1)C(CN1CCOCC1)c1ccccc1 (stereo not drawn),"inconclusive: 3.55 µM [activator, single point]"
3,COc1ccccc1NC(=O)/C=C1\NC(=O)CS1,inactive
4,C=CCC(CC=C)(CNC(=O)C(=O)Nc1ccc(C(=O)OCC)cc1)c1ccccc1,inactive
5,O=S(=O)(Nc1ccc(Cl)cn1)c1ccccc1,inactive
6,C=CCOC(=O)C1=C(C)NC(C)=C(C(=O)OCC=C)C1c1cccs1,"inconclusive: 39.8 µM [inhibitor, partial curve, poor fit]"
7,CSc1ncccc1C(=O)OCCCC(=O)c1ccc(F)cc1,"inconclusive: 35.5 µM [inhibitor, single point]"
8,O=C(/C=C/c1cn(CC(O)CN2CCCCCC2)c2ccccc12)c1ccc(Br)cc1 (stereo not drawn),"inconclusive: 35.5 µM [inhibitor, single point]"
9,O=C(N/N=C/c1cccs1)c1n[nH]c2c1CCC2,"inconclusive: 7.08 µM [inhibitor, full curve, poor fit]"
10,NC(=S)N/N=C/c1ccccc1OCCSc1ccc(Cl)cc1,"inconclusive: 14.1 µM [inhibitor, partial curve, poor fit]"
11,O=c1[nH]cnc2scc(C3COc4ccccc4O3)c12 (stereo not drawn),"inconclusive: 35.5 µM [inhibitor, single point]"
12,COc1ccc(C(=O)COC(=O)CCN2C(=O)C3CC=CCC3C2=O)c(OC)c1 (stereo not drawn),"inconclusive: 15.8 µM [activator, single point]"
13,Cn1ncc(N=Cc2c(O)ccc3ccccc23)c1C(=O)Nc1cccc(Cl)c1,active: 18.3 µM
14,COc1ccc(C(=O)Nc2c(F)c(F)c(F)c(F)c2F)c(OC)c1,"inconclusive: 15.8 µM [activator, partial curve, poor fit]"
15,Cc1ccc(S(=O)(=O)c2nc(S(C)(=O)=O)sc2N(C)C)cc1,inactive
16,O=C(Nc1ccccc1C(=O)N/N=C/c1ccncc1)c1ccccc1,"inconclusive: 1.12 µM [inhibitor, full curve, poor fit]"
17,CC(C)(C)NC(=O)c1ccc2c3c(cccc13)CC2,inactive
18,CC(=O)c1cccc(NS(=O)(=O)c2ccc(N/C=C/C(=O)c3ccc(F)cc3)cc2)c1,inactive
19,O=C(O)c1ccc2c(c1)C(=O)N(c1cccc(-c3nc4ccccc4s3)c1)C2=O,"inconclusive: 1.12 µM [inhibitor, full curve, poor fit]"
20,COCCN(C(=O)CNC(=O)c1cccs1)C(C(=O)NC(C)(C)C)c1ccccc1 (stereo not drawn),"inconclusive: 0.146 µM [inhibitor, full curve, poor fit]"
21,CCOC(=O)N1CCN(C(=O)c2ccccc2N(Cc2ccccc2)S(=O)(=O)c2ccc(OC)cc2)CC1,"inconclusive: 5.62 µM [inhibitor, single point]"

row,SMILES,Potency
1,O=C(CNc1ccc2ccccc2c1)N/N=C/c1ccc(OC(=O)/C=C/c2ccco2)cc1,inactive
2,CCOc1ccc2nc(NC(=O)CN3CCC(n4nnc5cc(F)ccc54)CC3)sc2c1,"inconclusive: 29.1 µM [inhibitor, single point]"
3,CN1c2ccccc2N(C)C1c1ccc2c(c1)OCO2,"inconclusive: 6.51 µM [activator, single point]"
4,NC(=O)c1c(NC(=O)CSc2nnc(-c3ccccc3)n2CC2CCCO2)sc2c1CCC2 (stereo not drawn),inactive
5,COc1ccc(-c2csc(N(CCCN(C)C)C(=O)c3ccc(C(C)(C)C)cc3)n2)cc1,"inconclusive: 35.5 µM [inhibitor, single point]"
6,CCCCNc1nc2c(c(=O)n(Cc3ccc(Cl)c(Cl)c3)c(=O)n2C)n1C,inactive
7,COc1cc(CN2CCN(c3ccccc3C)CC2)cc([N+](=O)[O-])c1O,"inconclusive: 1.78 µM [activator, partial curve, poor fit]"
8,N=c1c2c(n(Cc3ccc(Cl)cc3)c3c1CCC3)CCC2,"inconclusive: 5.17 µM [inhibitor, single point]"
9,COc1cc(OC)cc(-c2cc3nc(C)c(CCC(=O)NC(C)CCc4ccco4)c(C)n3n2)c1 (stereo not drawn),"inconclusive: 32.6 µM [inhibitor, single point]"
10,O=c1[nH]c(=O)n(Cc2ccccc2Cl)c(O)c1/C=C1/C=CC=N1,"inconclusive: 1.58 µM [inhibitor, partial curve, poor fit]"
11,CC(C)(C)c1cc(/C=N/O)cc(C(C)(C)C)c1O,"inconclusive: 35.5 µM [inhibitor, single point]"
12,COc1ccc(N(CC(=O)N2CCN(c3ccc(F)cc3)CC2)S(=O)(=O)c2c(C)n[nH]c2C)cc1,"inconclusive: 3.16 µM [inhibitor, single point] and inconclusive: 22.4 µM [inhibitor, partial curve, poor fit]"
13,CCOC(=O)c1ccc(NC(=S)NCCCn2ccnc2)cc1,"inconclusive: 4.47 µM [activator, partial curve]"
14,Cc1ccc(CNC(=O)CSc2nc3n[nH]c(C)c3c(=N)n2-c2cccc(C)c2)cc1,"inconclusive: 29.1 µM [inhibitor, single point]"
15,Cc1cc(Br)ccc1OCC(=O)NNC(=O)C(=O)Nc1ccccc1,"inconclusive: 35.5 µM [activator, single point]"
16,COc1ccc(NC(=O)Cn2nc(C(=O)O)c3ccccc3c2=O)cc1Cl,"inconclusive: 0.562 µM [inhibitor, full curve, poor fit]"
17,c1cncc(CNc2cccc(-c3nc4ccccc4[nH]3)c2)c1,"inconclusive: 2.51 µM [inhibitor, partial curve, poor fit]"
18,CO/N=C/C(C#N)=C/c1cc(C(=O)c2ccc(F)cc2)cn1C,"inconclusive: 18.3 µM [inhibitor, partial curve, poor fit]"
19,COc1ccccc1Nc1ccc(N)cc1,"inconclusive: 35.5 µM [inhibitor, single point]"
20,COc1ccc(/C=C/C(=O)Nc2ccc3nc(N4CCCCC4)cc(C)c3c2)cc1OC,"inconclusive: 11.2 µM [inhibitor, partial curve, poor fit]"
21,CC(C)c1ccc(Nc2c(-c3ccco3)nc3ccccn23)cc1,inactive
